Laboratory results: PMC4680862
For at least one entry, the source does not settle the construct or the ends of the probe. A negative result means that nothing was seen under these conditions.

Key:
[1] = test system: PhFBH4 (Petunia (species/cultivar not in the material)); assay: EMSA; conditions: LightShift chemiluminescent EMSA kit (Pierce), 1 ug recombinant protein, 2 nM biotin probe, pH and temperature not stated (according to Luo et al.), protein details: GST (N-terminal, pGEX)
[2] = test system: PhFBH4 (Petunia (species/cultivar not in the material)); assay: competition with a labelled probe; conditions: LightShift chemiluminescent EMSA kit (Pierce), 1 ug recombinant protein, 2 nM biotin probe, pH and temperature not stated (according to Luo et al.), protein details: GST (N-terminal, pGEX)
[3] = 1 ug protein, 2 nM probe, label: biotin

“TTAAATCACACATGAATAATATCAAATGTTTTGGTC (double strand) [proACO1 E-box probe]”: no binding [1, 3].
“TTTCTTTCTCACGTGTAGCTTCTA (double strand) [proACS1 G-box probe]”: binds [1, 3].
“TTTCTTTCTCACGTGTAGCTTCTA (double strand) [proACS1 unlabeled competitor]”: binds ([2]; unlabeled 10-, 100-, 1000-fold excess, gradually abolished binding).
“TTTCTTTCTGCTACTTAGCTTCTA (double strand) [mutated proACS1 probe]”: no binding ([1]; labeled mutant probe per Results (lane 6), legend calls lane 6 a mutant competitor lane, label: biotin (unlabeled as competitor)); no binding ([2]; excess mutant competitor, binding to proACS1 maintained, label: biotin (unlabeled as competitor)).
